Laboratory results as given in patent US7925520B2, “Methods of predicting dose of drug and program for predicting dose of drug” (priority 2007, dated 2011).

Key:
[1] = Prediction of Log(M*/C) from measured C and R by Equation 2; set-up: species or system rat; details: M* determined as a function of measured C and R values (Eq. 2)
[2] = Measurement 1: migration M of drug ion to skin with membrane type iontophoresis device; assay type: in vitro ADME, rat
Text: In some embodiments, a working side assembly 10 of the device 1 may include a working side electrode (negative electrode) 11; an electrolyte solution holding portion 12 for holding a physiological salt solution; a cation exchange membrane 13 on the front surface side of the electrolyte solution holding portion; a drug solution holding portion 14 for holding a drug solution on the front surface side of the cation exchange membrane 13; and an anion exchange membrane 15 on the front surface side of the drug solution holding portion.
In some embodiments, a non-working side assembly 20 of the device 1 may include a non-working side electrode (positive electrode) 21; an electrolyte solution holding portion 22 for holding a physiological salt solution; an anion exchange membrane 23 on the front surface side of the electrolyte solution holding portion 22; an electrolyte solution holding portion 24 for holding a physiological salt solution on the front surface side of the anion exchange membrane 23; and a cation exchange membrane 25 on the front surface side of the electrolyte solution holding portion 24. […]
The above measurement was performed 3 times for each sample, and the average value of the measurements was determined as the migration M.

COc1ccc2cc([C@H](C)C(=O)O)ccc2c1 [Naproxen]
Predicted Log(M*/C) [1]: −0.85 | Log(M/C) ([2]; from measured M and C): −0.91 | LogM ([2]; log of migration M, rat back skin, 6.25 mM, 0.94 mA, 60 minutes): 2.79
